The experiment addresses GST-γb_(H85A) (barley stripe mosaic virus (ND18 strain)). As to the kind of experiment: pull-down; GST pull-down: purified GST-tag protein with His-tag protein in 50 mM Tris-HCl pH 6.8, 500 mM NaCl, 1.5% glycerol, 0.6% Triton-X 100, 0.1% Tween 20, 3 h at 4°C; with or without 10 μg RNaseA, Zn^2+ 2-200 μM, 20 μM other divalent cations, or EDTA (200 μM in Fig 4D and 4E); blots with anti-GST or anti-His; both purified.

These are yes or no findings as the source states them, for the method shown. Binding calls can cover weak binding; strength is not graded here. Tags and fused reporters may be left off the sequences shown.

B1: CP-His (protein, UniProt P04866 1-198)
chain: MPNVSLTAKGGGHYIEDQWDTQVVEAGVFDDWWVHVEAWNKFLDNLRGINFSVASSRSQVAEYLAALDRDLPADVDRRFAGARGQIGSPNYLPAPKFFRLDKRTIAELTRLSRLTDQPHNNRDIELNRAKRATTNPSPPAQAPSENLTLRDVQPLKDSALHYQYVLIDLQSARLPVYTRKTFERELALEWIIPDAEEA
On to B1, for which the binding result is recorded as “binds weakly”.

Source of the values: publication PMC11213338.
